Values of other authors as cited in US20070237820A1, “Pharmaceutical formulations containing a non-steroidal antinflammatory drug and an antiulcerative drug” (Andrx Pharmaceuticals, LLC, priority 2004, published 2007).
At least one compound was matched to its structure with a doubt left.

Tested on: NSAID induced gastric ulcers

## CCCCC(C)(O)C/C=C/[C@H]1[C@H](O)CC(=O)[C@@H]1CCCCCCC(=O)OC (mixture of isomers) [Misoprostol, misoprostol]
200 mcg B.I.D. vs T.I.D. and Q.I.D.
  efficacy of B.I.D. regimen relative to T.I.D. and Q.I.D. regimens (gastric ulcers): less effective
200 mcg B.I.D., T.I.D. or Q.I.D. compared to placebo
  incidence of endoscopically diagnosed NSAID induced gastric ulcers: effective in reducing the incidence
All three dosing regimens (200 mcg B.I.D., T.I.D., Q.I.D.)
  incidence of endoscopically induced duodenal ulcers: significantly reduced
